Data from doi:10.1101/2023.09.12.557395.
No constants are given. Whether binding was seen depends on the method and setting. Binding seen in cells or lysates may run through a third protein. These calls come from enrichment with a bait or labelling near it, and not all partners need be listed. Where a sequence is shown, tags or fusion partners need not be part of it.

Sequences of proteins named here, by UniProt entry; tags and fusion partners are left off. A change or cut given only in a name is not applied to a line headed by its entry.
UniProt Q6RFH8, whole entry, stated change not applied: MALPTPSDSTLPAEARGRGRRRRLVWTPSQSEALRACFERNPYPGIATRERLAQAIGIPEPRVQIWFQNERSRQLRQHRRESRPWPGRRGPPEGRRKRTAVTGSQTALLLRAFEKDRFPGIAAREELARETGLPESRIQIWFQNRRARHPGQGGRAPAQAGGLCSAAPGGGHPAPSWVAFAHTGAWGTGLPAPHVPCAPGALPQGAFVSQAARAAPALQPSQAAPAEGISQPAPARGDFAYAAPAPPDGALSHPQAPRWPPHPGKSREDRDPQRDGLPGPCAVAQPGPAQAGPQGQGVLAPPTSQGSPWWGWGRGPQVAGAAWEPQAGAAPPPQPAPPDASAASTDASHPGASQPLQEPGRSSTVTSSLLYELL

Molecular target: DUX4c (Strep-tagged) (UniProt Q6RFH8)
Assay: affinity purification with mass spectrometry

B1: RFPL4A (untagged, overexpressed) (protein, UniProt A6NLU0 1-287)
chain: MAEHFKQIIRCPVCLKDLEEAVQLKCGYACCLQCLNSLQKEPDGEGLLCRFCSVVSQKDDIKPKYKLRALVSIIKELEPKLKSVLTMNPRMRKFQVDMTFDVDTANNYLIISEDLRSFRSGDLSQNRKEQAERFDTALCVLGTPRFTSGRHYWEVDVGTSQVWDVGVCKESVNRQGKIVLSSEHGFLTVGCREGKVFAASTVPMTPLWVSPQLHRVGIFLDVGMRSIAFYNVSDGCHIYTFIEIPVCEPWRPFFAHKRGSQDDQSILSICSVINPSAASAPVSSEGK
binding: binds
